From publication PMC3587586 come the findings set out here.

Sequences of proteins named here, by UniProt entry; tags and fusion partners are left off.
UniProt P55211: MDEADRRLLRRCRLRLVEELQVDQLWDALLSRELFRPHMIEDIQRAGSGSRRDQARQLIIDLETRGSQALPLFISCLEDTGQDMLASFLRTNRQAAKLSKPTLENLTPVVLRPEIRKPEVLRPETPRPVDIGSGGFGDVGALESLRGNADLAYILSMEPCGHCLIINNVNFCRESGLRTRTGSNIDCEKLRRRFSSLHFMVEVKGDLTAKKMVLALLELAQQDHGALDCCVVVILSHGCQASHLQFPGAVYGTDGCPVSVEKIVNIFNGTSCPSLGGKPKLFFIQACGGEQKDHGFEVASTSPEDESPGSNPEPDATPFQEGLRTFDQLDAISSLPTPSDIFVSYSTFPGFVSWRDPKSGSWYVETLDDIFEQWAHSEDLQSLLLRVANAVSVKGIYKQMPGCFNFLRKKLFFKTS

No constants are given. Whether binding was seen depends on the method and setting. Binding seen in cells or lysates may run through a third protein. Some entries that bind do so weakly or less than the wild type.

Assay [1] addresses T1, Retinoic acid-inducible gene-I (RIG-I) (human (endogenous in CAL27 and SCC4)) (UniProt O95786).
T1 sequence: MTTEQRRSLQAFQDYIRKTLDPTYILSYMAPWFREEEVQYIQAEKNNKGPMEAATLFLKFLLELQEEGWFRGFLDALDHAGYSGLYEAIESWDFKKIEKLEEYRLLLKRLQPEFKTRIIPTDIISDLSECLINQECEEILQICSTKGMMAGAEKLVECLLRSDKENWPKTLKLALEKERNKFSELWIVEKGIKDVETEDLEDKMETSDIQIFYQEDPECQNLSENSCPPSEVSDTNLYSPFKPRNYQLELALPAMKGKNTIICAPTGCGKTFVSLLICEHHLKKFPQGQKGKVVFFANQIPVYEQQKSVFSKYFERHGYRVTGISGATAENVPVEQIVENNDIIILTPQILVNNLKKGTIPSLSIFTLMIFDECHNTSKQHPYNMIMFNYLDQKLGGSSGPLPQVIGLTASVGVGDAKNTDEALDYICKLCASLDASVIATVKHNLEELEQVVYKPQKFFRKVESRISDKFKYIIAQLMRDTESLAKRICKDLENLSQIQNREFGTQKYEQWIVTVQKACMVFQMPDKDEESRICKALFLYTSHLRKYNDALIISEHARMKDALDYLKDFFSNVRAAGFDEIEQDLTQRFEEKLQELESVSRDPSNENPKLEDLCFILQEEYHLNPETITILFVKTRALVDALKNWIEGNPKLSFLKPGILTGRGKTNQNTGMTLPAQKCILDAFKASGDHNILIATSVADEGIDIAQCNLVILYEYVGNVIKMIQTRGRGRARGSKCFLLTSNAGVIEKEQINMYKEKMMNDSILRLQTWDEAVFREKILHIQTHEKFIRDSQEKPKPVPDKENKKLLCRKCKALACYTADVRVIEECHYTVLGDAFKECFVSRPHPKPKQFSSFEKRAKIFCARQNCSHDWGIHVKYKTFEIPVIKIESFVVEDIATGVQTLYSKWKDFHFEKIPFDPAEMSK
As to the kind of experiment: co-IP; lysates of CAL27 or SCC4 cells transfected with a high dose of 3p-RNA for 16 h; immunoprecipitated with anti-RIG-I antibody cross-linked to protein A-Sepharose, blotted for caspase-9.

In assay [2] the target is T1, Retinoic acid-inducible gene-I (RIG-I) (human (endogenous in CAL27 and SCC4)). As to the kind of experiment: condition: only cells overexpressing HA-tagged constitutively active Akt; co-IP; lysates of CAL27 cells pre-transfected with HA-tagged constitutively active Akt for 24 h, then with 3p-RNA for 16 h; immunoprecipitated with a RIG-I antibody, blotted with a caspase-9 antibody.

For assay [3] the target is unchanged. Put plainly: condition: only cells transfected with a low dose of 3p-RNA; co-IP; lysates of CAL27 or SCC4 cells transfected with a low dose of 3p-RNA for 16 h; immunoprecipitated with anti-RIG-I antibody cross-linked to protein A-Sepharose, blotted for caspase-9.

On to “pro-caspase-9 (from UniProt P55211 1-416)”, for which the binding entry is listed as “binds” in assay [1], “no binding” in assay [2] and “no binding” in assay [3].
